Chains of the proteins cited; added tags and fusions are not shown.
UniProt P11308, whole entry, looked up: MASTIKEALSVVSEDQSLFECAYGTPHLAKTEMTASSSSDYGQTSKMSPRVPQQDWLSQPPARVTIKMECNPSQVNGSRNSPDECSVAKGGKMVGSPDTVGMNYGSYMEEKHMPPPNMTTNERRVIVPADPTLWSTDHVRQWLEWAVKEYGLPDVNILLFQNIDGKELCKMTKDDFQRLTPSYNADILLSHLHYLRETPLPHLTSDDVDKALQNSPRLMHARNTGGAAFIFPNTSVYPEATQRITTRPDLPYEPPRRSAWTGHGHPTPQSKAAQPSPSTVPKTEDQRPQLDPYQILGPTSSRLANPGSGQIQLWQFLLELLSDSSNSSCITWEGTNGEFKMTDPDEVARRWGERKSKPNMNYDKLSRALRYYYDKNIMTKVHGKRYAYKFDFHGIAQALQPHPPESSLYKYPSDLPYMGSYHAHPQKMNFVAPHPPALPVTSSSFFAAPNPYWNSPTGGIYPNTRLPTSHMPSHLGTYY

In all, about 370,000 compounds went through this assay and about 100 (0.027%) were called active. Inconclusive results, whose numbers are uncertain, are shown with a selection of clear calls. Calls follow the shape of the dose curve; as a rule, active = well fitted inhibition curve with a large enough effect in the polarisation, with a control signal flat; inconclusive = small, poorly fitted or top-dose-only effect, or effect the other way, or a change in a side signal; inactive = no such curve, though single readings can be large or run the other way; the % refers to the polarisation. Potencies beside an inconclusive call are fits to weak or partial responses and may not hold up. A note “side channel” means that the fit belongs to a control or component signal, not to the main read-out.
The compounds below were run against Transcriptional regulator ERG (Homo sapiens) (UniProt P11308) (assay: qHTS for Small Molecule Inhibitors of the ERG Ets/DNA interaction). Conditions: fluorescence polarization, His-ERG Ets domain / labelled DNA; series mostly up to 76.9 µM.
Summary of the method: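 His-tagged ERG Ets domain (1 uM in the protein solution; 300mM KCl, 50mM Tris-HCl, 1mM EDTA, 1mM DTT, pH 7.5) received compound, then a probe mix of 5 nM fluorescein-DNA and 100nM Texas-615-DNA. Fluorescence polarization was read for both dyes.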
`NS(=O)(=O)c1ccc(NC(=O)/C(=C/c2ccncc2)NC(=O)c2ccccc2)cc1` was tested, and the Potency was inconclusive: 35.5 µM [inhibitor, single point].
In the case of `O=C(N/N=C/c1cccnc1)c1ccc2c(c1)OCO2`, the Potency is reported as “inactive”.
With `O=C(NC1CCN(S(=O)(=O)c2ccccc2C(F)(F)F)CC1)c1ccco1` the Potency was inconclusive: 10 µM [inhibitor, single point].
For `CCOCC(=O)N1CCC(Cc2ccccc2)CC1`, the Potency was inconclusive: 7.94 µM [inhibitor, partial curve, poor fit].
With `COc1ccc(CC(=O)OCC(=O)Nc2cccnc2Cl)cc1OC` the Potency was inconclusive: 31.6 µM [inhibitor, single point].
For `CNS(=O)(=O)c1ccc(NC(=O)c2csc(C)c2)cc1`, the Potency was “inactive”.
`Cc1oc(C)c2c(=O)ccc3c(c12)OC(N)=C(C#N)C3c1ccccc1Cl` (centres undefined) was tested, and the Potency was inconclusive: 35.5 µM [fluorescent, side channel, partial curve].
With `COc1ccc(C2CC(=O)C(C=NCCN3CCN(C(=S)Nc4ccccc4)CC3)=C(O)C2)cc1` (centres undefined) the Potency was inconclusive: 50.1 µM [inhibitor, single point].
`O=C(COC(=O)/C=C/c1ccc([N+](=O)[O-])cc1)NCc1cccs1` was tested, and the Potency was inconclusive: 35.5 µM [inhibitor, single point].
In the case of `CCCOc1ccc(C(=O)N(Cc2ccccc2Cl)C2CCS(=O)(=O)C2)cc1` (centres undefined), the Potency is reported as inconclusive: 8.91 µM [quencher, side channel, partial curve, poor fit].
`COc1ccc(-n2cnc3cc(C(=O)NC4CCCC4)ccc32)cc1` was tested, and the Potency was inconclusive: 11.2 µM [inhibitor, single point].
`Cc1scc(C(=O)N/N=C/c2ccc(OCC(C)C)cc2)c1C` was tested, and the Potency was “inactive”.
In the case of `Cc1cc(N/N=C/c2ccncc2)nc2ccccc12`, the Potency is reported as “inactive”.
`CCOc1ccc(CNS(=O)(=O)c2cc3c(cc2C)NC(=O)CO3)cc1` was tested, and the Potency was “inactive”.
`Cc1ccc(/C=C2\SC(N3CCCCC3)=NC2=O)cc1` was tested, and the Potency was inconclusive: 0.794 µM [inhibitor, full curve, poor fit].
With `CCN(CC)c1ccc(CNc2ccc3c(c2)ncn3CC)cc1` the Potency was “inactive”.
`Oc1c(Cl)cc(Oc2cc(Cl)c(O)c(CN3CCOCC3)c2)cc1CN1CCOCC1` was tested, and the Potency was inconclusive: 11.2 µM [inhibitor, single point].
In the case of `COc1cc(OC)cc(C(=O)NNC(=O)C(=O)Nc2cc(OC)c(Cl)cc2OC)c1`, the Potency is reported as “inactive”.
`COc1ccc(-c2ccc(SCc3ccccn3)nn2)cc1OC` was tested, and the Potency was “inactive”.
With `Cc1cccc(C(=O)Nc2ccc(C(=O)N3CCCCC3C)cc2)c1` (centres undefined) the Potency was inconclusive: 7.94 µM [inhibitor, single point].
`Cc1[nH]c2ccccc2c1/C=N/NC(=O)c1cccc(Br)c1` was tested, and the Potency was “inactive”.
With `Nc1nnc(-c2ccccc2F)s1` the Potency was inconclusive: 0.794 µM [inhibitor, full curve, poor fit].
`O=C(CNCc1ccccc1)NCCCN1CCCC1=O` was tested, and the Potency was inconclusive: 50.1 µM [inhibitor, single point].
`COc1cccc(/C=C2\CCC(C3CCCC3)C2=O)c1OC` (centres undefined) was tested, and the Potency was “inactive”.
With `CCN1CCN(Cc2ccc(NC(=O)Nc3ccccc3Cl)cc2)CC1` the Potency was “inactive”.
For `Cc1[nH]c2ccc(F)cc2c1CCNC(=O)C1CCCCC1C(=O)OCC(F)(F)F` (centres undefined), the Potency was inconclusive: 12.6 µM [inhibitor, partial curve, poor fit].
In the case of `CCN1CCN(c2nc(C)nc3c2sc(=S)n3C)CC1`, the Potency is reported as “inactive”.
`CCOC(=O)C(NC(=O)CC(C)C)(Nc1sc2c(c1C(N)=O)CCCC2)C(F)(F)F` (centres undefined) was tested, and the Potency was inconclusive: 50.1 µM [inhibitor, single point].
With `Cc1sc2ncnc(NCCN3CCOCC3)c2c1C` the Potency was “inactive”.
With `O=[N+]([O-])c1cccc(S(=O)(=O)Nc2ccc(-c3ccc(N4CCOCC4)nn3)cc2)c1` the Potency was “inactive”.
For `Cc1ccccc1NC(=O)NCCc1c[nH]c2ccccc12`, the Potency was inconclusive: 39.8 µM [quencher, side channel, partial curve, poor fit].
`Cc1ccsc1/C=N/NC(=O)c1ccc(-n2cccc2)cc1` was tested, and the Potency was inconclusive: 50.1 µM [quencher, side channel, single point].
`[O-][n+]1c2ccccc2[n+]([O-])c2cc(O)ccc21` was tested, and the Potency was “inactive”.
For `Fc1cccc(Cl)c1Cn1c(-c2cccs2)nc2ccccc21`, the Potency was “inactive”.
With `O=C(CN1C(=O)NC2(CCCC2)C1=O)NNC(=O)c1ccc(Cl)cc1` the Potency was inconclusive: 5.62 µM [inhibitor, single point].
With `C/C(=N/NC(=O)c1sc(NS(=O)(=O)c2ccccc2)nc1C)c1sc(N)nc1C` the Potency was “inactive”.
`COC(=O)Nc1cccn(Cc2c(Cl)cccc2Cl)c1=O` was tested, and the Potency was “inactive”.
With `O=C(N/N=C/c1ccc(F)cc1)c1cc(-c2ccco2)nc2ccccc12` the Potency was “inactive”.
In the case of `COc1cc(CCC(=O)Nc2ccc(Br)c(C(F)(F)F)c2)cc(OC)c1OC`, the Potency is reported as inconclusive: 11.2 µM [inhibitor, single point].
With `CC(C)(C)c1ccc(C(=O)N/C(=C\c2cccs2)C(=O)N2CCOCC2)cc1` the Potency was inconclusive: 35.5 µM [inhibitor, single point].
For `CN(C)C(=O)C1(c2ccccc2)CCN(S(=O)(=O)c2ccccc2)CC1`, the Potency was inconclusive: 7.08 µM [fluorescent, side channel, partial curve, poor fit].
`COc1ccccc1C(=O)Nn1c(-c2cccs2)nc2ccccc2c1=O` was tested, and the Potency was inconclusive: 50.1 µM [inhibitor, single point].
In the case of `Cc1cc(C)nc(N2C(=O)CC(Cc3ccc(Cl)cc3)C2=O)n1` (centres undefined), the Potency is reported as inconclusive: 2.82 µM [inhibitor, partial curve, poor fit].
With `COc1ccc(N)c2c1C(=O)c1ccccc1C2=O` the Potency was inconclusive: 50.1 µM [inhibitor, single point].
With `CC(C)(C)C1CCc2c(sc(NC(=O)Cn3nnc(-c4ccccc4F)n3)c2C#N)C1` (centres undefined) the Potency was inconclusive: 8.91 µM [fluorescent, side channel, full curve, poor fit].
In the case of `O=c1ccc2[n+]([O-])c3ccc(O)cc3oc-2c1`, the Potency is reported as inconclusive: 4.47 µM [inhibitor, full curve, poor fit].
With `COc1cc(/C=C\C(=O)NCc2ccc3c(c2)cc(C)n3C)cc(OC)c1OC` the Potency was inconclusive: 35.5 µM [inhibitor, single point].
In the case of `Cc1cc2cc(CNC(=O)c3cccs3)ccc2n1C`, the Potency is reported as active: 17.8 µM.
In the case of `Cc1cccc(C)c1NS(=O)(=O)c1ccc(NC(=O)c2ccc(Cl)c([N+](=O)[O-])c2)cc1`, the Potency is reported as “inactive”.
`COc1ccc(/C=N/NC(=O)c2ccc(Br)cc2)c(OC)c1` was tested, and the Potency was inconclusive: 44.7 µM [inhibitor, partial curve, poor fit].
For `CCOC(=O)C1CCN(C(=O)Cn2c(=O)oc3cc(S(=O)(=O)N4CCC(C)CC4)ccc32)CC1`, the Potency was “inactive”.
In the case of `CCOc1ccc(CCNC(=O)Cc2nn[nH]n2)cc1OCC`, the Potency is reported as inconclusive: 35.5 µM [quencher, side channel, partial curve, poor fit].
For `O=C(O)CC1S/C(=N/N=C/C=C/c2ccccc2)NC1=O` (centres undefined), the Potency was “inactive”.
With `COc1ccc(S(=O)(=O)N2CC(C)OC(C)C2)cc1C(=O)N1CCCCC1` (centres undefined) the Potency was inconclusive: 50.1 µM [inhibitor, single point].
For `CCN(CCNC(=O)c1ccc(C#N)cc1)c1cccc(C)c1`, the Potency was inconclusive: 3.16 µM [inhibitor, partial curve, poor fit].
In the case of `CN1CCN(NC(=O)CN2C(=O)/C(=C/c3ccccc3Cl)SC2=S)CC1`, the Potency is reported as inconclusive: 31.6 µM [fluorescent, side channel, single point].
`Nn1c(Cc2ccccc2)nc2sc3c(c2c1=O)CCC3` was tested, and the Potency was inconclusive: 5.62 µM [inhibitor, single point].
In the case of `O=C(Oc1ccc(Br)cc1)c1n[nH]c(=O)c2ccccc12`, the Potency is reported as inconclusive: 50.1 µM [inhibitor, single point].
For `COc1ccc(OCCCC(=O)Nc2cccc(C(C)=O)c2)cc1`, the Potency was inconclusive: 31.6 µM [inhibitor, single point].
In the case of `CN(C)c1ccc(C=NC(CO)C(O)c2ccc([N+](=O)[O-])cc2)cc1` (centres undefined), the Potency is reported as inconclusive: 11.2 µM [quencher, side channel, single point].
With `Cc1ccc(C(=O)NC(=S)Nc2ccc(NC(=O)c3cccc(Cl)c3)cc2)cc1` the Potency was inconclusive: 100 µM [inhibitor, single point].
With `O=c1o[nH]c(-c2ccccc2)c1-c1ccccc1` the Potency was inconclusive: 0.708 µM [inhibitor, partial curve, poor fit].
For `CC(C)OC(=O)CCCCCN1C(=O)CSC1=S`, the Potency was inconclusive: 22.4 µM [fluorescent, side channel, partial curve, poor fit].
`O=c1[nH]cc(S(=O)(=O)Nc2ccc3c(c2)OCO3)c(=O)[nH]1` was tested, and the Potency was inconclusive: 5.62 µM [inhibitor, single point].
`O=C(O)c1ccc(-c2nc(-c3ccccc3)cs2)cc1` was tested, and the Potency was “inactive”.
`Cc1cc(/C=C2\C(=N)N3N=C(C(C)C)SC3=NC2=O)c(C)n1-c1ccccc1` was tested, and the Potency was inconclusive: 17.8 µM [inhibitor, partial curve, poor fit].
With `O=C(N/N=C/C(Br)=C/c1ccccc1)NC1CCCCC1` the Potency was “inactive”.
`O=[N+]([O-])c1ccc(CN2CCC(Cc3ccccc3)CC2)cc1` was tested, and the Potency was “inactive”.
In the case of `Cc1cc(NC(=O)CSCC(=O)N(c2cccc(Cl)c2)C(C(=O)NC2CCCCC2)c2ccc(O)c(O)c2)no1` (centres undefined), the Potency is reported as inconclusive: 25.1 µM [quencher, side channel, partial curve, poor fit].

Source: PubChem BioAssay AID624246 (National Center for Advancing Translational Sciences (NCATS), 2012)
Potency is read from the fitted curve at half-maximal effect.
